# This is one part of the list.
# Amino acid sequences for entries named in this document (tags omitted). A change or cut given only in a name is not applied to a line headed by its entry.
# UniProt Q93084: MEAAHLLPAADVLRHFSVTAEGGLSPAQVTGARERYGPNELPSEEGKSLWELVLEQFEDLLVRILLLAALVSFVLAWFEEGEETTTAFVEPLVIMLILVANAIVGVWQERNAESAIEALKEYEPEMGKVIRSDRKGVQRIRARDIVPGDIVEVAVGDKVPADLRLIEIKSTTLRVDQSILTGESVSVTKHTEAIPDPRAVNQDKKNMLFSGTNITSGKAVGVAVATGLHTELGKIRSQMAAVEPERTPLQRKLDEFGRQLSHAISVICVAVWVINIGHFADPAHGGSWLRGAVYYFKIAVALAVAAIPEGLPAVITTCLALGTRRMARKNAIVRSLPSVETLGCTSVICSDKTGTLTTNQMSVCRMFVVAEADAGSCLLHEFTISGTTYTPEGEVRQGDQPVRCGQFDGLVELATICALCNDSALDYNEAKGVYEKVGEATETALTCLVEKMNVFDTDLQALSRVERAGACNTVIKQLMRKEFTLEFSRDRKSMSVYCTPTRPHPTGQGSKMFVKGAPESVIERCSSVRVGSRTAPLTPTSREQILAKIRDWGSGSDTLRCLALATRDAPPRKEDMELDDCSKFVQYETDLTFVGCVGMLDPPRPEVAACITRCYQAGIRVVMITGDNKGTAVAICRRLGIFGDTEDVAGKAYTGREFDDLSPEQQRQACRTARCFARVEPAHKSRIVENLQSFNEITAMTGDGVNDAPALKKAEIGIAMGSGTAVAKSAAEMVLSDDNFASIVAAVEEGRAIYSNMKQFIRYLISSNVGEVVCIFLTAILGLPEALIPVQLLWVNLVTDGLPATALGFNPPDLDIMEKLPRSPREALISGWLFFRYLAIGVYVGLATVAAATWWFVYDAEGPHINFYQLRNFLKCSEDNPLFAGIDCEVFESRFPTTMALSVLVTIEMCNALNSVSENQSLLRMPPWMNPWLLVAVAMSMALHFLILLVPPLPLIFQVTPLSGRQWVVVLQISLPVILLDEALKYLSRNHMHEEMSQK
# UniProt P32121, whole entry, looked up: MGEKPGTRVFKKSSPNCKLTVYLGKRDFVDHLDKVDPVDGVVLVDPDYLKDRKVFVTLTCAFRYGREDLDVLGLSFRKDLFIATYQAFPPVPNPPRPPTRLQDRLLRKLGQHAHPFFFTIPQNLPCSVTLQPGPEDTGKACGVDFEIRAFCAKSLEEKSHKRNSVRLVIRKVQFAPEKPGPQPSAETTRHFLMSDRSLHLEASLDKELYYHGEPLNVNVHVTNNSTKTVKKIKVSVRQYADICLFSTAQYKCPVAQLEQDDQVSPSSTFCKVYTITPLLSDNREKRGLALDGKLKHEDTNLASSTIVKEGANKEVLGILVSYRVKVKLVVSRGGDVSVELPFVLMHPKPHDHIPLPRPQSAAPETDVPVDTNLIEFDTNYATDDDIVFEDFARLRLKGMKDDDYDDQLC
# UniProt P15289: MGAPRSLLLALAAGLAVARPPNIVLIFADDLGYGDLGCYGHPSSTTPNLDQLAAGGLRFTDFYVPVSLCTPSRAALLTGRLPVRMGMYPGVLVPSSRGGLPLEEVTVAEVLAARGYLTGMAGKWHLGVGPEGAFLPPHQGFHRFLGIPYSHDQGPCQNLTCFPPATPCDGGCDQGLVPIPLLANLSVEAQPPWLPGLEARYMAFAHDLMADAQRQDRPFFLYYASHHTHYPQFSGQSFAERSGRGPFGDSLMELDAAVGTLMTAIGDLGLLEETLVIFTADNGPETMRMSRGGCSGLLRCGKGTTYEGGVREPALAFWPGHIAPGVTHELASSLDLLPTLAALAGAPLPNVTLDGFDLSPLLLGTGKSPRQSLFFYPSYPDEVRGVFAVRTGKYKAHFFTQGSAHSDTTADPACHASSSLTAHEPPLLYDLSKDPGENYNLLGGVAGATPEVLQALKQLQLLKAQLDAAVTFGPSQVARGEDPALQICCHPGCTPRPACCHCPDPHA
# UniProt Q9BZE9, whole entry, looked up: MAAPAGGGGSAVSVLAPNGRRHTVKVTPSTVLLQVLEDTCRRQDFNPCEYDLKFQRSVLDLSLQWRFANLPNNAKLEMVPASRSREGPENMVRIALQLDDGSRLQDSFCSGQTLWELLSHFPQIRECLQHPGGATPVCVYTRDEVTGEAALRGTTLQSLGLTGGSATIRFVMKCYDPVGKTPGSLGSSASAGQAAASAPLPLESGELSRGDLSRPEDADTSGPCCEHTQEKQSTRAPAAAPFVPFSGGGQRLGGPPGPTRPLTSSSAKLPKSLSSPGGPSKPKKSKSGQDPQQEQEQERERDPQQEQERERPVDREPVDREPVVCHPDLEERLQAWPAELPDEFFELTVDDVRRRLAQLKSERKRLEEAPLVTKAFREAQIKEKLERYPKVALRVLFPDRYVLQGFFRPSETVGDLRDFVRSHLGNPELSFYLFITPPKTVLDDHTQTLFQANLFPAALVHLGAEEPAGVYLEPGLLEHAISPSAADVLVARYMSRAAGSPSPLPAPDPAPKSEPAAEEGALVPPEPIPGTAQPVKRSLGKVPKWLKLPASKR
# UniProt Q9UI12, whole entry, looked up: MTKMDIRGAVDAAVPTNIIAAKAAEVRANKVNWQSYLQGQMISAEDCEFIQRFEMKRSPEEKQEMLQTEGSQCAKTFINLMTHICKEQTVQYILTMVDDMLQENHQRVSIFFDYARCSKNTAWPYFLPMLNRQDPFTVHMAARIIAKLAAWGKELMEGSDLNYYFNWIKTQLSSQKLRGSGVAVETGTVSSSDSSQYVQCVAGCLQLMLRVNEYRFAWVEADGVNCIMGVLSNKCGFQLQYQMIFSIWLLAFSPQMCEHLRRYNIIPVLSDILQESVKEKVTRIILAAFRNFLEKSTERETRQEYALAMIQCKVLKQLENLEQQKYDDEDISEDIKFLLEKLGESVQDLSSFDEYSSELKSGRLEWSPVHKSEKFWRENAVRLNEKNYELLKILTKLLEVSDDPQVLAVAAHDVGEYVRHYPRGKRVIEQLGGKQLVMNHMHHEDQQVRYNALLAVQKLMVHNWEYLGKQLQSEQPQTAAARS
# UniProt Q9NWL6: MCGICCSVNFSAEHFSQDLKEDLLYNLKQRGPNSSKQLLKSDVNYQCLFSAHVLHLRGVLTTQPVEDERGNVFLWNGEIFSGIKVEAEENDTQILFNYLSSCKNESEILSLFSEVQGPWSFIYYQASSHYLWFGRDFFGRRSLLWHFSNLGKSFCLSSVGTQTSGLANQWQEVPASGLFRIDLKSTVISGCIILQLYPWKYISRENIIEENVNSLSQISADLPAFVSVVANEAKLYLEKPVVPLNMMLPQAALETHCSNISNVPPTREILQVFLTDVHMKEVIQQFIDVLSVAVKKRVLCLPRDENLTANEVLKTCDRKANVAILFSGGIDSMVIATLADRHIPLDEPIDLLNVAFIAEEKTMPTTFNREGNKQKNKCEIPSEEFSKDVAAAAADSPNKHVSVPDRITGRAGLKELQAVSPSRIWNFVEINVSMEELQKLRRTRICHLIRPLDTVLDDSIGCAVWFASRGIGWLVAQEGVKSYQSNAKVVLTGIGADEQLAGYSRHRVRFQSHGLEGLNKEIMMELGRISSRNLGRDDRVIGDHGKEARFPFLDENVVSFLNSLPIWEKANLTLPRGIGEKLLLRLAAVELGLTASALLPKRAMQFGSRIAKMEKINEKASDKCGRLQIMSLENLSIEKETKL
# UniProt Q8N5M1: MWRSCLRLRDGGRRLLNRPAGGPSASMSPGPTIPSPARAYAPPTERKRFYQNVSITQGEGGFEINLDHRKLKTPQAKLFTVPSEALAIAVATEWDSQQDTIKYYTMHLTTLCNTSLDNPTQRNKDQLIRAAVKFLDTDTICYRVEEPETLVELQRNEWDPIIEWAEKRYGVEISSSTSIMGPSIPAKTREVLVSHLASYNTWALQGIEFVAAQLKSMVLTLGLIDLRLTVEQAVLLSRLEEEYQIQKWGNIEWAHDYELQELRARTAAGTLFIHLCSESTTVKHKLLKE
# UniProt Q76L83: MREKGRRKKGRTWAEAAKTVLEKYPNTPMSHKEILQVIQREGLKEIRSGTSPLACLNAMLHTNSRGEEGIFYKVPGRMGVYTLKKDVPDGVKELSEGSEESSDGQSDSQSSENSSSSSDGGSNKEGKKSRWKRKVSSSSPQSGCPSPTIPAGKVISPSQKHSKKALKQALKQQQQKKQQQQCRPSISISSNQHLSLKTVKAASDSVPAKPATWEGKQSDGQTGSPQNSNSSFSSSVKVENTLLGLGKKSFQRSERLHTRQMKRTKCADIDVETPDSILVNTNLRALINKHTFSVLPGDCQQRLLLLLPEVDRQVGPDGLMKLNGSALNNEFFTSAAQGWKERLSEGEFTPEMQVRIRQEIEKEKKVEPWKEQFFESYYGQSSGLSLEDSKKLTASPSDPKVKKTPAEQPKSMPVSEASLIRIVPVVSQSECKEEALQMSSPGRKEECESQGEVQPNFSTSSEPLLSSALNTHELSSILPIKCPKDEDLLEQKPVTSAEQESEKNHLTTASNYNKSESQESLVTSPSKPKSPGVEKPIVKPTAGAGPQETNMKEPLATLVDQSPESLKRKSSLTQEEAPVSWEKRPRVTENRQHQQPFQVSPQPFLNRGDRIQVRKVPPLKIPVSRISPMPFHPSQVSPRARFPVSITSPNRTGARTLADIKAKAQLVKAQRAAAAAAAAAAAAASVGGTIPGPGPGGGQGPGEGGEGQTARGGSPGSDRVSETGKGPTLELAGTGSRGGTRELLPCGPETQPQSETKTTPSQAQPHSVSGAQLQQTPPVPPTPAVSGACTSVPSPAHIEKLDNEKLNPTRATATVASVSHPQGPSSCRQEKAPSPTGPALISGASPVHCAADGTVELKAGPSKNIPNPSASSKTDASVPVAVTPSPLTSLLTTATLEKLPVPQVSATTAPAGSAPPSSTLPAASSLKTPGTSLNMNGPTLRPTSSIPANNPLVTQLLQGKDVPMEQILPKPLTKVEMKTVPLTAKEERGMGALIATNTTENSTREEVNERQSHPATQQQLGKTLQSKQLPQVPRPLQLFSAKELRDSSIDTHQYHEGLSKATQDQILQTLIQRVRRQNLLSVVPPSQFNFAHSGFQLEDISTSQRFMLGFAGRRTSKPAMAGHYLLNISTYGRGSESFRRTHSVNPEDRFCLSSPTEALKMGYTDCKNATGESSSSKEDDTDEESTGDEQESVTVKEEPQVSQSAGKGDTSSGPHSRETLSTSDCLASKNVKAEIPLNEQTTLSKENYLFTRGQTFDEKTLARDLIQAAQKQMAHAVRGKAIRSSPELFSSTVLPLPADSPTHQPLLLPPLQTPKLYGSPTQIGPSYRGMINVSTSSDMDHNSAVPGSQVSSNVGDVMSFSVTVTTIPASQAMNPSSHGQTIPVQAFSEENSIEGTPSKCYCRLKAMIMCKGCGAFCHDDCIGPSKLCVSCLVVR
# UniProt P38606, whole entry, looked up: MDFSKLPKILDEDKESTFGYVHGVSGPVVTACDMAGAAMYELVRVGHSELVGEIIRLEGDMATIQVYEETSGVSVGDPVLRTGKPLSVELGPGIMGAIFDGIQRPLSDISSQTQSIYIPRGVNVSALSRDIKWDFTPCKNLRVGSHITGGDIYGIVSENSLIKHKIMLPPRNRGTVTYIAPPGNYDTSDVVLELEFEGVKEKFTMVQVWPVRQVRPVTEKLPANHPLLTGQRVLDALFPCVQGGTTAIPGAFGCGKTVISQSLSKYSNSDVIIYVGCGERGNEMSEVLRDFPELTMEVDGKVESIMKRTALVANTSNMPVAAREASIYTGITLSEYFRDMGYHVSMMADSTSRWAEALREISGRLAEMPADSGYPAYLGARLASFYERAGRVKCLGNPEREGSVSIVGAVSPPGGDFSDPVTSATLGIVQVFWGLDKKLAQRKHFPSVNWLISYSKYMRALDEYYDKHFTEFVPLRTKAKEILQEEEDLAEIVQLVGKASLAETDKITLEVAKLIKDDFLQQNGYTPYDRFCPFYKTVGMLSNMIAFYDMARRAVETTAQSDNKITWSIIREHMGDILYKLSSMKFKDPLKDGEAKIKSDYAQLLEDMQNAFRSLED
# UniProt Q9UBL3, whole entry, looked up: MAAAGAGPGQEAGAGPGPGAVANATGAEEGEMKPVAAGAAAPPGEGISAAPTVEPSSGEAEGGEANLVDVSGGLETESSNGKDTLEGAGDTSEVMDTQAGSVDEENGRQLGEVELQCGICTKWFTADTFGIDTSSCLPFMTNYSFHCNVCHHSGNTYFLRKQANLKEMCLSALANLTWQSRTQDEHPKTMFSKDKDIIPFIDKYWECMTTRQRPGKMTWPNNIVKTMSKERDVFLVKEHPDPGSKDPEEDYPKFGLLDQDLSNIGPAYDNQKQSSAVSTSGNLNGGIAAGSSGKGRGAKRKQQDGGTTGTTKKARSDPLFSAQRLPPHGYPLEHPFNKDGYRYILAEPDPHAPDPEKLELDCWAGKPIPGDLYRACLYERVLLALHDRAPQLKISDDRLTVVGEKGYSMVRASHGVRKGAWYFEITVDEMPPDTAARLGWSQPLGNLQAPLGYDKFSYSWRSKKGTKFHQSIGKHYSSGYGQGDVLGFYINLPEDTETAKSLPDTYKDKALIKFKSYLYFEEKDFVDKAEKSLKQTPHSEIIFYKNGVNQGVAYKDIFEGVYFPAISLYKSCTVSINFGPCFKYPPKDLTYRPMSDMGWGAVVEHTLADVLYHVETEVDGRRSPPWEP
# Compound: CC1Cc2ccccc2N1C(=O)C1CCCN(C1)C(=O)CCl (mixture of isomers) [TRIM25 ligand 11 (diastereomer mixture)]
# Assay: probe-labelled cysteine peptide fold change vs DMSO (competition) (log2 fold change); higher = less target engagement (more negative = stronger competition)
# Details: 10 µM; THP-1; incubation time: 4 h
# 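Also: competitive chemoproteomic profiling in live THP-1 cells with an iodoacetamide desthiobiotin (IA-DTB) probe, comparing probe-labelled peptide intensities in compound-treated cells against DMSO-treated controls.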
row,Target,probe-labelled cysteine peptide fold change
1,ASPH_Q12797_384_AQCEDDLAEK (UniProt Q12797),0.021
2,ATP2A2_P16615_669_DACLNAR (UniProt P16615),-0.0508
3,ATP2A3_Q93084_471_AGACNTVIK (UniProt Q93084),-0.0532
4,ATP2A1_O14983_349_SLPSVETLGCTSVICSDK (UniProt O14983),0.0588
5,ATG7_O95352_406_QPLYEFEDCLGGGKPK (UniProt O95352),-0.0601
6,ARRB2_P32121_141_ACGVDFEIR (UniProt P32121),-0.0146
7,ARPC4_P59998_21_ATLQAALCLENFSSQVVER (UniProt P59998),0.0687
8,ARSA_P15289_493_GEDPALQICCHPGCTPR (UniProt P15289),0.139
9,ATP2B4_P23634_55_DALTQINVHYGGVQNLCSR (UniProt P23634),0.0169
10,ASCC3_Q8N3C0_208_FLNEHLQEACTPELKPVEK (UniProt Q8N3C0),-0.0159
11,ATP6V0A2_Q9Y487_323_CLIAEVWCPEADLQDLRR (UniProt Q9Y487),0.171
12,ATP11C_Q8NB49_214_AAIECEQPQPDLYK (UniProt Q8NB49),-0.0354
13,ATP13A1_Q9HD20_13+18_AAAAAVGNAVPCGARPCGVRPDGQPK (UniProt Q9HD20),-0.0534
14,ATP1A1_P05023_374_NLEAVETLGSTSTICSDK (UniProt P05023),0.12
15,ATAD1_Q8NBU5_137_GVLLYGPPGCGK (UniProt Q8NBU5),0.0242
16,ATAD2B_Q9ULI0_100_QPDSVCK (UniProt Q9ULI0),0.243
17,ASS1_P00966_97_YLLGTSLARPCIAR (UniProt P00966),0.00504
18,ASCC3_Q8N3C0_1343_AYEALYNFSHFNPVQTQIFHTLYHTDCNVLLGAPTGSGK (UniProt Q8N3C0),-0.0869
19,ASPSCR1_Q9BZE9_138_ECLQHPGGATPVCVYTR (UniProt Q9BZE9),0.158
20,ATP6V1B2_P21281_162_VFNGSGKPIDRGPVVLAEDFLDIMGQPINPQCR (UniProt P21281),-0.191

row,Target,probe-labelled cysteine peptide fold change
1,ATP6V1H_Q9UI12_73_QEMLQTEGSQCAK (UniProt Q9UI12),-0.154
2,ASNSD1_Q9NWL6_378_CEIPSEEFSK (UniProt Q9NWL6),0.245
3,ATP6V0A1_Q93050_58_RCEEMDR (UniProt Q93050),0.0489
4,ATPAF2_Q8N5M1_276_TAAGTLFIHLCSESTTVK (UniProt Q8N5M1),-0.156
5,ASXL2_Q76L83_299_HTFSVLPGDCQQR (UniProt Q76L83),0.0929
6,ATP5F1A_P25705_244_KLYCIYVAIGQK (UniProt P25705),-0.433
7,ATP2A2_P16615_498_SMSVYCTPNKPSR (UniProt P16615),-0.0769
8,ATF7IP2_Q5U623_220_QSDNILCSEDSGFVPVEK (UniProt Q5U623),-0.0613
9,ATP6V1B2_P21281_425_KDHADVSNQLYACYAIGK (UniProt P21281),-0.13
10,ATP6V1A_P38606_138_WDFTPCK (UniProt P38606),-0.198
11,ASAP1_Q9ULH1_627_TADQTSLHLVDFLVQNCGNLDK (UniProt Q9ULH1),-0.147
12,ATP13A1_Q9HD20_648_LGSTDLCYIAAVK (UniProt Q9HD20),0.0558
13,ATP6V1A_P38606_277_YSNSDVIIYVGCGER (UniProt P38606),-0.0251
14,ATG16L2_Q8NAA4_319_YQIIPVCVAAR (UniProt Q8NAA4),-0.106
15,ASH2L_Q9UBL3_581_SCTVSINFGPCFK (UniProt Q9UBL3),0.0671
16,ATG2A_Q2TAZ0_698+715_SELSSGPGPPVPTHLELTCSDLHGIYEDGGKPPVPCLR (UniProt Q2TAZ0),0.0924
17,ATF7IP_Q6VMQ6_1228_ALPLPMACTLTQFVSGSK (UniProt Q6VMQ6),0.192
18,ATM_Q13315_353_ENLIELMADICHQVFNEDTR (UniProt Q13315),-0.368
19,ATF7_P17544_61_NCEEVGLFNELASSFEHEFK (UniProt P17544),0.208

# Same assay, conditions: 50 µM; THP-1; incubation time: 4 h
row,Target,probe-labelled cysteine peptide fold change
1,ASPH_Q12797_384_AQCEDDLAEK (UniProt Q12797),0.0357
2,ATP2A2_P16615_669_DACLNAR (UniProt P16615),-0.0397
3,ATP2A3_Q93084_471_AGACNTVIK (UniProt Q93084),-0.0445
4,ATP2A1_O14983_349_SLPSVETLGCTSVICSDK (UniProt O14983),0.107
5,ATG7_O95352_406_QPLYEFEDCLGGGKPK (UniProt O95352),-0.0833
6,ARRB2_P32121_141_ACGVDFEIR (UniProt P32121),-0.0247
7,ARPC4_P59998_21_ATLQAALCLENFSSQVVER (UniProt P59998),0.17
8,ARSA_P15289_493_GEDPALQICCHPGCTPR (UniProt P15289),0.309
9,ATP2B4_P23634_55_DALTQINVHYGGVQNLCSR (UniProt P23634),-0.16
10,ASCC3_Q8N3C0_208_FLNEHLQEACTPELKPVEK (UniProt Q8N3C0),-0.085
11,ATP6V0A2_Q9Y487_323_CLIAEVWCPEADLQDLRR (UniProt Q9Y487),0.192
12,ATP11C_Q8NB49_214_AAIECEQPQPDLYK (UniProt Q8NB49),-0.0483
13,ATP13A1_Q9HD20_13+18_AAAAAVGNAVPCGARPCGVRPDGQPK (UniProt Q9HD20),-0.208
14,ATP1A1_P05023_374_NLEAVETLGSTSTICSDK (UniProt P05023),0.0529
15,ATAD1_Q8NBU5_137_GVLLYGPPGCGK (UniProt Q8NBU5),-0.0414
16,ATAD2B_Q9ULI0_100_QPDSVCK (UniProt Q9ULI0),0.281
17,ASS1_P00966_97_YLLGTSLARPCIAR (UniProt P00966),-0.131
18,ASCC3_Q8N3C0_1343_AYEALYNFSHFNPVQTQIFHTLYHTDCNVLLGAPTGSGK (UniProt Q8N3C0),0.153
19,ASPSCR1_Q9BZE9_138_ECLQHPGGATPVCVYTR (UniProt Q9BZE9),-0.134
20,ATP6V1B2_P21281_162_VFNGSGKPIDRGPVVLAEDFLDIMGQPINPQCR (UniProt P21281),-0.212

row,Target,probe-labelled cysteine peptide fold change
1,ATP6V1H_Q9UI12_73_QEMLQTEGSQCAK (UniProt Q9UI12),-0.0754
2,ASNSD1_Q9NWL6_378_CEIPSEEFSK (UniProt Q9NWL6),0.181
3,ATP6V0A1_Q93050_58_RCEEMDR (UniProt Q93050),0.118
4,ATPAF2_Q8N5M1_276_TAAGTLFIHLCSESTTVK (UniProt Q8N5M1),0.117
5,ASXL2_Q76L83_299_HTFSVLPGDCQQR (UniProt Q76L83),-0.0666
6,ATP5F1A_P25705_244_KLYCIYVAIGQK (UniProt P25705),0.0534
7,ATP2A2_P16615_498_SMSVYCTPNKPSR (UniProt P16615),-0.0652
8,ATF7IP2_Q5U623_220_QSDNILCSEDSGFVPVEK (UniProt Q5U623),-0.177
9,ATP6V1B2_P21281_425_KDHADVSNQLYACYAIGK (UniProt P21281),0.0617
10,ATP6V1A_P38606_138_WDFTPCK (UniProt P38606),-0.819
11,ASAP1_Q9ULH1_627_TADQTSLHLVDFLVQNCGNLDK (UniProt Q9ULH1),-0.263
12,ATP13A1_Q9HD20_648_LGSTDLCYIAAVK (UniProt Q9HD20),0.0185
13,ATP6V1A_P38606_277_YSNSDVIIYVGCGER (UniProt P38606),-0.00211
14,ATG16L2_Q8NAA4_319_YQIIPVCVAAR (UniProt Q8NAA4),-0.0055
15,ASH2L_Q9UBL3_581_SCTVSINFGPCFK (UniProt Q9UBL3),-0.0169
16,ATG2A_Q2TAZ0_698+715_SELSSGPGPPVPTHLELTCSDLHGIYEDGGKPPVPCLR (UniProt Q2TAZ0),-0.0139
17,ATF7IP_Q6VMQ6_1228_ALPLPMACTLTQFVSGSK (UniProt Q6VMQ6),0.0855
18,ATM_Q13315_353_ENLIELMADICHQVFNEDTR (UniProt Q13315),-0.329
19,ATF7_P17544_61_NCEEVGLFNELASSFEHEFK (UniProt P17544),-0.0863

# Source: the supplement of paper PMC12067093, “Discovery and optimisation of a covalent ligand for TRIM25 and its application to targeted protein ubiquitination” (Chemical Science, 2025)
